## Library screen at single concentrations

The values are deposited in ChEMBL (CHEMBL3988442, “University of Dundee, Small-Polar-MMV Screening Library” (2021)).

Values are the deposited “Percent Effect”, in %.
The record does not define 0% and 100%; most values in the screen are far below 50% and negative numbers occur (in some assays of this library far below -100).
The compounds are a random part of those screened.

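Assay of Toxoplasma gondii numbers, read through their beta-galactosidase reporter with a colour substrate. Tested at 10 µM. Higher reads as fewer parasites (inferred from which compounds were picked for retests). Size under these conditions: about 67,000 compounds, about 260 of them at 50% or above in at least one test.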

compound: CCOC(=O)N(C)C1CCN(Cc2csc(C)n2)CC1
effect: 3.599%

compound: N#Cc1cccc(N2CCC3(CC2)Nc2ccccc2NC3=O)n1
effect: 5.239%

compound: N#Cc1ncn(CC(=O)Nc2cc(Cl)ccc2F)n1
effect: 13.62%

compound: CCn1cnnc1CNC(=O)C1COc2ccc(Cl)cc2C1 (stereo not given)
effect: -3.539%

compound: CCc1noc(CN(C)CCC(=O)Nc2ccc(Cl)cc2)n1
effect: 0.8974%

compound: N#Cc1ccc(C(=O)N2CCCSCC2CN2CCCC2)cc1 (stereo not given)
effect: 1.68%

compound: Cc1cc2ccccc2n1CCC(=O)N1CCCCC1CCO (stereo not given)
effect: 3.59%

compound: O=C(O)C(F)(F)F.c1ccc(N2CCC3(CCCN(c4ncccn4)C3)C2)nc1 (stereo not given)
effect: -30%

compound: COc1cc2c(cc1OC)CN(C(C(=O)O)c1c(C)nn(C)c1C)CC2 (stereo not given)
effect: -3.45%

compound: O=C(c1ccsc1)N1CCC(Nc2cccnn2)CC1
effect: 9.25%

compound: [H][C@@]12CN(Cc3ccccc3)CC[C@]1([H])N(C(C)=O)C[C@H]2c1ccsc1
effect: -17.1%

compound: Cc1nc(NC(=O)NC2CC(=O)N(C)C2)nn1C(C)C (stereo not given)
effect: -6.901%

compound: O=C1CCCN1C1CCCN(CCn2cc(Cl)cn2)C1 (stereo not given)
effect: -15.84%

compound: Cc1nc(CN(C)C2CCN(Cc3nc4c(F)cccc4[nH]3)C2)no1 (stereo not given)
effect: 7.619%

compound: CC[C@H]1N(Cc2ccc(OC)cc2)CCC[C@]12CCC(=O)N2C
effect: -5.38%

compound: CCCn1[nH]cc/c1=N\C(=O)CN1CCCC1Cn1nc(C)nc1C (stereo not given)
effect: -3.462%

compound: CNc1cc(C2CN(Cc3cccnc3NC)CCO2)nc(C)n1 (stereo not given)
effect: 16.86%

compound: Cc1cnc(N2CCCC3(CCCN3CC(=O)N(C)C)C2)nc1.O=C(O)C(F)(F)F (stereo not given)
effect: -2.715%

compound: [H][C@]12CCN(Cc3cnc(NCc4ccccc4)nc3)C[C@]([H])(CC1)N2
effect: -3.772%

compound: COCCNC(=O)c1nc2c(s1)CCCN2c1ccc(C)nn1
effect: -0.471%

compound: Cc1nc(CN2CCCC3(CCN(c4cnn(C)c4)C3=O)C2)cs1.O=C(O)C(F)(F)F (stereo not given)
effect: 7.897%

compound: CC(C)c1cc(NC(=O)CN2CCCC2Cn2cccn2)on1 (stereo not given)
effect: -3.327%

compound: O=C(O)C(F)(F)F.[H][C@@]12COC[C@]1([H])[C@@H](OCC(=O)N(C)C)CN2Cc1ccoc1
effect: 18.43%

compound: O=C(C1CCOCC1)N1CCC2(CC1)CC(Oc1ccccc1)CO2 (stereo not given)
effect: -3.624%

compound: Fc1ccc(CC2CCN(Cc3nccs3)CC2)cc1
effect: -6.213%

compound: Cc1ccc2c(c1)C1(CC(=O)Nc3[nH]ncc31)C(=O)N2C (stereo not given)
effect: -4.685%

compound: O=C(COc1coc(CN2CCCCC2)cc1=O)Nc1ccccc1Cl
effect: 0.9564%

compound: CC(=O)N1CCC(Nc2cccc(OC(F)F)c2C)CC1
effect: -11.55%